Data reported in PMC3346753.
Results are given in words; binding and its absence hold for the method and conditions named. In cells and extracts the contact can be indirect. Some results given as binding are weak or reduced against the parent protein; the word gives no strength.

Protein sequences, listed by entry. Tags and fused reporters are not part of them.
UniProt Q9EPW2: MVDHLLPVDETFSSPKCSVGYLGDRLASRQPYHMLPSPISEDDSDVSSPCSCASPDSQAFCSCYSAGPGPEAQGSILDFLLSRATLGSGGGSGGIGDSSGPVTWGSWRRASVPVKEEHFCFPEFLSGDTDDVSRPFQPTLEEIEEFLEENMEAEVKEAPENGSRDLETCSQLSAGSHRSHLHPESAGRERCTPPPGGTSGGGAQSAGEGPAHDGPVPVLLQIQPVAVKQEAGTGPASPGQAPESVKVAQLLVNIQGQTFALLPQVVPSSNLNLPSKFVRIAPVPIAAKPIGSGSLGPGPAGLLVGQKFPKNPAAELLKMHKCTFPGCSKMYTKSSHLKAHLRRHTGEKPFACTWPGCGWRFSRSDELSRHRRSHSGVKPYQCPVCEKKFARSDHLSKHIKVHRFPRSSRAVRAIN

B1: Myocardin Related Transcription Factor B (MRTF-B), in vitro translated, 35S-labeled (protein, UniProt P59759 1-1080)
chain: MIDSSKKQPQGFPEILTAEDFEPFKEKECLEGSNQKSLKEVLQLRLQQRRTREQLVDQGIMPPLKSPAAFHEQIKSLERARTENFLKHKIRSRPDRSELVRMHILEETFAEPSLQATQMKLKRARLADDLNEKIAQRPGPMELVEKNILPVDSSVKEAIIGVVKEDYPHTHGEFSFDEDSSDALSPDQPASQESQGSAASPSEPKVSASPPPVTASTPAQFTSVSPAVPEFLKTPLTADQPPTRSTAPVLPTNTVSSAKSGPMLVKQSHPKNPNDKHRSKKCKDPKPRVKKLKYHQYIPPNQKGEKSEPQMDSNYARLLQQQQLFLQLQILSQQQQQQQQQHYNYQTILPAPIKTDKNSSSGSNSGSSSSMPARRPGPLPSSLDDLKVSELKTELKLRGLPVSGTKPDLIERLKPYQEVTSSNLATGSIVAVSSATIVTSNPEVTVALPVTTLHNAVTSSVSTFKADLALPATSSVPHVENAHSPLPISPSPSEQSSLSTDDTNMTDTFTEIMTMMSPSQLLCSSPLRVVSHDDSLSPSSSTLSTLELDAAEKDRKLQEKEKQIEELKRKLEQEQKLVEVLKMQLEVEKRGQQRPPDPQPSDPPHPFNTSDPKHGSVGSSIKDEASLPDCSSPQQPITVPGHSVGQPISTGSQTLVAKKTVVVKQEVPMAQAEQQNVVSQFYLSSQGQPPALVAQPQALLTTQTTQLLLPVSIQGSNVTSVQLPVGSLQLQTPAQGRVQAQPHVAAATQVPAAALPSALTSALPQKQEAFPQHVLGQPQPVRKVFTNSAPNTVLQYQRQPGPTNQQPFVSKTSNPALQSRTAPLAPLQNGPSLASKPSSPPPPQQFVVQHSLFATPITKTKDPPRYEEAIKQTRSTQPALPEVSSVHSQQMDDLFDILIKSGEISFPIKEEPSPISKMKPVTASITTMPVNTVVSRPPPQVQIAPPVSLEPVNSLSASLENQLEAFLDGTLPSATDTGPLQNSSEDRESFSLIEDLQNDLLSHSSMLYQSHSPMETSEAQLVSGTPCLSLDLSDSNLDNMEWLDITMPTTSSGLTPLSTTAPSMFSADFLDPQDLPLPWD
modifications: 35S methionine label
B2: serum response factor (SRF), in vitro translated, 35S labeled (protein, UniProt P11831 1-508)
chain: MLPTQAGAAAALGRGSALGGSLNRTPTGRPGGGGGTRGANGGRVPGNGAGLGPGRLEREAAAAAATTPAPTAGALYSGSEGDSESGEEEELGAERRGLKRSLSEMEIGMVVGGPEASAAATGGYGPVSGAVSGAKPGKKTRGRVKIKMEFIDNKLRRYTTFSKRKTGIMKKAYELSTLTGTQVLLLVASETGHVYTFATRKLQPMITSETGKALIQTCLNSPDSPPRSDPTTDQRMSATGFEETDLTYQVSESDSSGETKDTLKPAFTVTNLPGTTSTIQTAPSTSTTMQVSSGPSFPITNYLAPVSASVSPSAVSSANGTVLKSTGSGPVSSGGLMQLPTSFTLMPGGAVAQQVPVQAIQVHQAPQQASPSRDSSTDLTQTSSSGTVTLPATIMTSSVPTTVGGHMMYPSPHAVMYAPTSGLGDGSLTVLNAFSQAPSTMQVSHSQVQEPGGVPQVFLTASSGTVQIPVSAVQLHQMAVIGQQAGSSSNLTELQVVNLDTAHSTKSE
modifications: 35S methionine label
B3: Myocardin Related Transcription Factor A (MRTF-A), in vitro translated, 35S-labeled (protein, UniProt Q8K4J6 1-964)
chain: MTLLEPEMLMMAVQSVLQLKLQQRRTREELVSQGIMPPLKSPAAFHEQRRSLERARTEDYLKRKIRSRPERAELVRMHILEETSAEPSLQAKQLKLKRARLADDLNEKIAQRPGPMELVEKNILPVESSLKEAIIVGQVNYPKVADSSSFDEDSSDALSPEQPASHESQGSVPSPLESRVSDPLPSATSISPTQVLSQLPMAPDPGETLFLAEQPPLPPAPLLPPSLANGSIVPTAKPAPTLIKQSQPKSASEKSQRSKKAKELKPKVKKLKYHQYIPPDQKQDKGAPAMDSSYAKILQQQQLFLQLQILNQQQQQQQQQHYNYQAILPAPPKPSAETPGSSAPTPSRSLSTSSSPSSGTPGPSGLARQSSTALAAKPGALPANLDDMKVAELKQELKLRSLPVSGTKTELIERLRAYQDQVSPAPGAPKAPATTSVLSKAGEVVVAFPAALLSTGSALVTAGLAPAEMVVATVTSNGMVKFGSTGSTPPVSPTPSERSLLSTGDENSTPGDAFGEMVTSPLTQLTLQASPLQIVKEEGARAASCCLSPGARAELEGLDKDQMLQEKDKQIEELTRMLQQKQQLVELLRLQLEQQKRAQQPAPASSPVKRESGFSSCQLSCQPQGSAHAFGSGLVVPTTNHGDTQAPAPESPPVVVKQEAGPPEPDLAPSSQLLLGSQGTSFLKRVSPPTLVTDSTGTHLILTVTNKSADGPGLPAGSPQQPLSQPGSPAPGPPAQMDLEHPPQPPFATPTSLLKKEPPGYEETVTQQPKQQENGSSSQHMDDLFDILIQSGEISADFKEPPSLPGKEKSPPAAAAYGPPLTPQPSPLSELPQAAPPPGSPTLPGRLEDFLESSTGLPLLTSGHEGPEPLSLIDDLHSQMLSSSAILDHPPSPMDTSELHFAPEPSSGMGLDLAVGHLDSMDWLELSSGGPVLSLAPLSTAAPSLFSMDFLDGHDLQLHWDSCL
modifications: 35S methionine label

Biological target: GST-KLF15 fusion protein (mouse) (UniProt Q9EPW2)
Assay: pull-down; GST-KLF15 bound to Glutathione Sepharose 4B beads as bait; in vitro translated 35S-labelled proteins (TNT quick coupled system) assayed for binding; only the target purified

Row | binding | Binder
1 | binds | B1
2 | no binding | B2
3 | binds | B3
